Values from PubChem BioAssay AID1159584 (Peter MacCallum Cancer Centre, 2016)

Test: 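Genes whose loss is lethal only together with E-cadherin loss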 (primary screen)
Cell system: human MCF10A breast epithelial cells, parental and CDH1-null
Knock-down reagent: siRNA against human genes
Measured: 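ATP luminescence (CellTiter-Glo) viability per line relative to mean mock wells over all plates, and the ratio of CDH1-null to parental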
Reading the numbers: CDH1-null / parental viability ratio: higher = CDH1-null cells survive relatively better than parental
This is an unselected part of about 18,000 deposited reagents. Further read-outs or replicates are left out here. Not stated in the record: the amount of reagent, the time to read-out.

For MAST1 (microtubule associated serine/threonine kinase 1), what does the deposit list?
CDH1-null / parental viability ratio: 0.82

For SYNPO (synaptopodin), how do the results read?
CDH1-null / parental viability ratio: 0.66

What is on record for FLRT3 (fibronectin leucine rich transmembrane protein 3)?
CDH1-null / parental viability ratio: 0.81

How did the screen score C19orf44 (chromosome 19 open reading frame 44)?
CDH1-null / parental viability ratio: 1.14

With ADAMTS2 (ADAM metallopeptidase with thrombospondin type 1 motif 2), what was measured?
CDH1-null / parental viability ratio: 1.24

For SPATA9 (spermatogenesis associated 9), what was measured?
CDH1-null / parental viability ratio: 0.9

How did the screen score FHOD3 (formin homology 2 domain containing 3)?
CDH1-null / parental viability ratio: 1.19

What did the screen give for UFC1 (ubiquitin-fold modifier conjugating enzyme 1)?
CDH1-null / parental viability ratio: 0.91

With MTA2 (metastasis associated 1 family member 2), what does the deposit list?
CDH1-null / parental viability ratio: 0.94

For ABHD12B (abhydrolase domain containing 12B), how do the results read?
CDH1-null / parental viability ratio: 1.24

With MGAT4A, what does the deposit list?
CDH1-null / parental viability ratio: 1.22

With SAXO1 (stabilizer of axonemal microtubules 1), what was measured?
CDH1-null / parental viability ratio: 0.96

For DIAPH1 (diaphanous related formin 1), what was measured?
CDH1-null / parental viability ratio: 0.89

With ZNF665 (zinc finger protein 665), how do the results read?
CDH1-null / parental viability ratio: 1.1

With C20orf96 (chromosome 20 open reading frame 96), what does the deposit list?
CDH1-null / parental viability ratio: 1.11

For TMPRSS11D (transmembrane serine protease 11D), how do the results read?
CDH1-null / parental viability ratio: 1.39

What did the screen give for KCNS1?
CDH1-null / parental viability ratio: 1.1

With DCUN1D4 (defective in cullin neddylation 1 domain containing 4), what does the deposit list?
CDH1-null / parental viability ratio: 0.81

What did the screen give for CCNC (cyclin C)?
CDH1-null / parental viability ratio: 0.81

With RETN (resistin), what was measured?
CDH1-null / parental viability ratio: 0.77

For CDK18 (cyclin dependent kinase 18), what was measured?
CDH1-null / parental viability ratio: 0.88

What did the screen give for UTP15 (UTP15 small subunit processome component)?
CDH1-null / parental viability ratio: 1.02

Which result is listed for SLC22A17?
CDH1-null / parental viability ratio: 0.98

With SERINC2 (serine incorporator 2), how do the results read?
CDH1-null / parental viability ratio: 1.22

Not a retest: entries from further up.
DCUN1D4 (defective in cullin neddylation 1 domain containing 4): CDH1-null / parental viability ratio = 0.81
CCNC (cyclin C): CDH1-null / parental viability ratio = 0.81
